These are yes or no findings as the source states them, for the method shown. Some results given as binding are weak or reduced against the parent protein; the word gives no strength.
Tests used:
[1] = target: human PD-L1 on transfected cells (human) (UniProt Q9NZQ7); experiment: FACS on CHO/PD-L1 stable cells, anti-HuFc-PE
[2] = target: human PD-L1 on transfected cells (human) (UniProt Q9NZQ7); experiment: FACS stability test, week 0 in PBS pH 7.4, 1st Ab 62.5/31/15.6 ng, 2nd Ab HuFc-PE 60 ng
[3] = target: human PD-L1 on transfected cells (human) (UniProt Q9NZQ7); experiment: flow cytometry on CHO/PD-L1 stable cells, 1st Ab 62.5, 31, 15.6, 7.8, 3.9, 1.9 ng, 2nd Ab anti-HuFc-PE 60 ng
[4] = target: human PD-L1 on transfected cells (human) (UniProt Q9NZQ7); experiment: FACS stability test, week 0 in Na-citrate buffer pH 5.5, 1st Ab 62.5/31/15.6 ng, 2nd Ab label partly lost (Fc-PE) 60 ng
[5] = target: human PD-L1 on transfected cells (human) (UniProt Q9NZQ7); experiment: FACS stability test, week 2 in PBS pH 7.4, 1st Ab 62.5/31/15.6 ng, 2nd Ab HuFc-PE 60 ng; storage temperature of this row not given
[6] = target: human PD-L1 on transfected cells (human) (UniProt Q9NZQ7); experiment: FACS stability test, week 2 in Na-citrate buffer pH 5.5, 1st Ab 62.5/31/15.6 ng, 2nd Ab HuFc-PE 60 ng; storage temperature of this row not given
[7] = target: human PD-L1 on transfected cells (human) (UniProt Q9NZQ7); experiment: competition on MC38-PD-L1 cells: unlabeled anti-PD-L1 IgG1 against 68Ga-NOTA-anti-PD-L1 scFv, gamma counting; the blocker's concentration is not printed on the sheet (text paragraph 461: 20, 40, 80, 160 nM)

The chains behind the UniProt entries cited, without tags or fusion partners. Where a name states a change or a piece, a line headed by the entry shows the natural chain unless it says otherwise.
UniProt Q9NZQ7: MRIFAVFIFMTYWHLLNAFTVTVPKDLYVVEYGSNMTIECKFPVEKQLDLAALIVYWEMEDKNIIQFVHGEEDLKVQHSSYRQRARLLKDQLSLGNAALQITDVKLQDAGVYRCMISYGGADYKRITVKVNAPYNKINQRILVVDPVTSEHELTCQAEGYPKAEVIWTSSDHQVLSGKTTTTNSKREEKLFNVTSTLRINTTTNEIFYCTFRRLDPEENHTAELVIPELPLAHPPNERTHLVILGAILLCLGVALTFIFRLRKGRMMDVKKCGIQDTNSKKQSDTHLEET

Measured: binding

B1: parental humanized IgG1 positive control antibody (antibody, V domains shown)
VH: QVQLVQSGAEVKKPGASVKVSCKASGFNIKDTYMYWVRQAPGQGLEWMGRIDPANDNTKYAQKFQGRVTITADTSTSTAYMELSSLRSEDTAVYYCARAKNLLNYFDYWGQGTLVTVSS
VL: DIQMTQSPSSLSASVGDRVTITCRASQEISGYLSWLQQKPGKAPKRLIYATSTLQSGVPSRFSGSRSGTDYTLTISSLQPEDFATYYCLQYAIYPLTFGQGTKLEIKR
notes: also called anti-PD-L1 IgG1; Anti-Human PD-L1 IgG1
binds: [1] | [2] | [3] | [4] | [5] | [6] | [7]

— patent US20210213145A1 (TAYU HUAXIA BIOTECH MEDICAL GROUP, published 2021)
